Measured values as given in the supplement of paper PMC8288183.
The other results are listed elsewhere or left out. Single values are uncertain, as repeats are few or missing.

Target: T1, NSUN6 (UniProt Q8TEA1)
T1 sequence: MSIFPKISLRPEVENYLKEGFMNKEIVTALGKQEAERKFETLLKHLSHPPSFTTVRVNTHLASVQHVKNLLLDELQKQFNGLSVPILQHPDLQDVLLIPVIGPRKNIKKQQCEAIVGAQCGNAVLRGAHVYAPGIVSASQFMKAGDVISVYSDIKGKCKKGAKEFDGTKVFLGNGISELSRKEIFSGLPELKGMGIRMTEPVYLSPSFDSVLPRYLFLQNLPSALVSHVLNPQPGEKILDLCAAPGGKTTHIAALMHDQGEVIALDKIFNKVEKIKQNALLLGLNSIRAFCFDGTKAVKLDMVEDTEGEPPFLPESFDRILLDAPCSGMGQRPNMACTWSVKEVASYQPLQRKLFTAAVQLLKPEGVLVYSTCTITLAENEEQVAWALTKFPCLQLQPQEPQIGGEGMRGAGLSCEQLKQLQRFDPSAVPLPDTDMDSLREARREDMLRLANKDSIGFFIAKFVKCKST
Test: m5C methylation level at the target C (C/(C+U) bisulfite reads) (fraction); higher = more methylation by NSUN6; extreme values may be limits of the assay
Details: HEK293T (wild-type)
Procedure: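 High-throughput mutagenesis reporter. About 140 bp oligo-pool variants of four natural Type II m5C substrates (substrate #1 chr15:91425541; #2 RAB15 3'UTR chr14:65413377; #3 SULT2A1 5'UTR chr19:48389569; #4 NAAA CDS chr4:76857361) were cloned as 3'UTR elements of psiCHECK-2 luciferase and transfected into wild-type HEK293T cells. Total RNA was taken 48 h later and m5C level was measured by targeted bisulfite sequencing as C/(C+U) reads at the m5C site (one library).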

[1] = parent substrate: substrate #1 (main figure)

Sequence | m5C methylation level at the target C [1] | m5C methylation level at the target C (parent substrate: substrate #2) | m5C methylation level at the target C (parent substrate: substrate #3) | m5C methylation level at the target C (parent substrate: substrate #4)
ACGUUA | 0 | 0 | 0.000528 | 0.000575
UCAGAA | 0 | 0.0107 | 0 | 0.0138
CCGUGU | 0.00851 | 0.00426 | 0.000657 | 0
GCCGCU | 0.000747 | 0.00279 | 0.000887 | 0.00157
GCAAAU | 0.000559 | 0 | 0 | 0.000714
GCCUGC | 0.00234 | 0.00236 | 0.000335 | 0
CCUCCC | 0 | 0 | 0 | 0.00343
UCUAGA | 0.00118 | 0 | 0.000799 | 0.00147
UCUGCU | 0 | 0.00141 | 0.00215 | 0
UCGCUA | 0 | 0.00152 | 0.00212 | 0.00184
CCGCAU | 0 | 0.000623 | 0.00117 | 0.000444
GCACCC | 0.00155 | 0.00283 | 0.00127 | 0.00092
GCCUUG | 0.00167 | 0.00631 | 0.00215 | 0.0047
UCAAUG | 0 | 0.00286 | 0 | 0
ACUUCG | 0 | 0.00573 | 0 | 0.00136
CCCAUG | 0.00255 | 0.00109 | 0.00277 | 0.00279
UCUCUA | 0.227 | 0.016 | 0.194 | 0.158
ACAGCA | 0 | 0 | 0.00456 | 0
ACGUUC | 0.000773 | 0.00268 | 0.00286 | 0.00479
ACUUCA | 0.00185 | 0 | 0.00099 | 0
CCGGGG | 0.0131 | 0.000849 | 0.00155 | 0.000808
CCGUUG | 0 | 0 | 0.00125 | 0.00372
GCUCGU | 0 | 0.00453 | 0.00178 | 0.00215
GCUUGC | 0 | 0.00375 | 0.00217 | 0.00373
ACGGCA | 0.00994 | 0.00302 | 0 | 0.00095

Sequence | m5C methylation level at the target C [1] | m5C methylation level at the target C (parent substrate: substrate #2) | m5C methylation level at the target C (parent substrate: substrate #3) | m5C methylation level at the target C (parent substrate: substrate #4)
CCGCGA | 0.000929 | 0.00105 | 0.000891 | 0.00834
GCAGUG | 0.000747 | 0.00639 | 0.00332 | 0.00344
GCGUAC | 0.00111 | 0 | 0.00046 | 0.00182
GCCCCG | 0.0043 | 0 | 0.00231 | 0
CCGCUA | 0.000672 | 0.00173 | 0.0021 | 0.00117
ACGAAG | 0 | 0.000972 | 0 | 0.000986
GCCGCA | 0.00165 | 0.0015 | 0.0115 | 0.0033
GCGGCC | 0 | 0.000633 | 0.00091 | 0.00201
UCACAC | 0 | 0 | 0.00157 | 0.000833
UCCCAC | 0.00178 | 0 | 0 | 0
UCUAGC | 0.000672 | 0 | 0 | 0.00232
GCGUAG | 0.00238 | 0.00152 | 0.00343 | 0.00457
CCCCGC | 0.000511 | 0.000925 | 0 | 0.00318
ACCGCC | 0.0012 | 0.00724 | 0.00144 | 0.000682
GCUCUC | 0.00295 | 0.0106 | 0.00382 | 0.0016
CCAACC | 0.00111 | 0 | 0.00811 | 0
GCACUU | 0.00183 | 0 | 0 | 0.000663
GCGAGG | 0 | 0.0006 | 0.0022 | 0.00227
ACUCAC | 0 | 0.00121 | 0 | 0
UCAGUU | 0.000546 | 0.000726 | 0 | 0
GCAAUU | 0.000488 | 0 | 0.00365 | 0
UCUUCG | 0.0019 | 0 | 0.000417 | 0.00161
UCGGCC | 0.00115 | 0.000672 | 0.00171 | 0.000341
GCAGUC | 0.00148 | 0.00714 | 0.00137 | 0
CCUAGA | 0 | 0.00118 | 0.001 | 0.00106

Single entries from the entries so far.
ACGAAG – m5C methylation level at the target C (parent substrate: substrate #4): 0.000986
GCACUU – m5C methylation level at the target C [1]: 0.00183

Further records:

Sequence | m5C methylation level at the target C [1] | m5C methylation level at the target C (parent substrate: substrate #2) | m5C methylation level at the target C (parent substrate: substrate #3) | m5C methylation level at the target C (parent substrate: substrate #4)
GCGCCC | 0.00129 | 0.00431 | 0.00122 | 0.00145
ACACUU | 0 | 0.00344 | 0.000538 | 0.0021
GCUCAG | 0.00206 | 0.000971 | 0.000471 | 0.00575
GCACCA | 0.000449 | 0.000812 | 0.000538 | 0.000726
UCAGUA | 0.00332 | 0.0025 | 0 | 0
UCUAAU | 0 | 0 | 0.00137 | 0.00319
ACCCGG | 0.0108 | 0.000608 | 0.00286 | 0.000984
CCUGCA | 0 | 0 | 0 | 0.0101
CCCCAG | 0 | 0.0017 | 0 | 0.00852
CCGCAG | 0.0029 | 0.00202 | 0.00129 | 0.00072
ACACCA | 0 | 0.00135 | 0 | 0.00131
UCGUAA | 0.000563 | 0 | 0.00315 | 0
ACCUAC | 0.000527 | 0 | 0 | 0.00131
UCCUUC | 0.00296 | 0 | 0 | 0.00725
CCUGGA | 0 | 0 | 0.00481 | 0.00575
CCCCGU | 0 | 0 | 0.00139 | 0.00106
ACUGCU | 0 | 0.00478 | 0.00129 | 0.0025
ACGCCA | 0 | 0.00131 | 0 | 0
CCACUG | 0 | 0 | 0.000702 | 0.00582
ACCGCG | 0.0013 | 0.000564 | 0.00237 | 0
ACAGGU | 0 | 0 | 0 | 0
UCCGGG | 0 | 0 | 0 | 0.000894
UCCGGC | 0 | 0 | 0.00088 | 0.002
